This note sets out measurements from PubChem BioAssay AID493014 (National Center for Advancing Translational Sciences (NCATS), 2011).

The list shows a part of the results. Further columns of the screen follow, without active or inactive calls. The list favours compounds with an active or inconclusive main result. Words in brackets tell the shape of the fitted curve; partial curves, single points and poor fits give uncertain potencies.

The nature of the assay: qHTS Assay to Find Inhibitors of Chronic Active B-Cell Receptor Signaling. Conditions: ABC-DLBCL IkBa-CBG/CBR reporter, luminescence ratio (green luciferase fused to IkBa over red control in TMD8 lymphoma cells), 4 h; measured here: CBR red luminescence, cell number. The method, boiled down:
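Concentration-response series (up to 46 uM) were applied to TMD8 dual-reporter cells for 4 h at 37C with doxycycline. Green/red ratio, after filter-overlap correction, defined %Activity; red signal alone was normalised to basal cells and zero luminescence.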
For orientation: In qHTS, concentration-response curves come from the screen itself.
Regarding `COCCn1c(SCC(=O)c2c(-c3ccccc3)n(C)c3ccccc23)nnc1-c1ccncc1`, the AC50 was 16.4 µM [falling, partial curve].
For `CCCCC(C(=O)NC(C)(C)C)N(Cc1ccccc1Cl)C(=O)c1snc(C(N)=O)c1N` (stereo not drawn), the AC50 was 11.2 µM [rising, partial curve].
In the case of `Cc1ccc(CONC(=O)c2ccccc2)cc1`, the AC50 is 8.91 µM [falling, partial curve, poor fit].
Turning to `CSc1c(-c2ccccn2)c(N)nn1C(=O)C1CCC1`, the AC50 was 15.8 µM [rising, single point].
Take `CCOC(=O)c1sc(NC(=O)CSc2nc3cccnc3n2C)nc1C`: the AC50 is 0.794 µM [falling, full curve, poor fit].
Consider `O=C(Nc1ccccc1)Nc1ccc(F)cc1F`, for which the AC50 was 25.1 µM [falling, single point].
For `Cc1nc2ccccn2c1C(=O)N/N=C/c1ccc(CNC(=O)C(=O)Nc2ccccc2)o1`, the AC50 is 8.2 µM [falling, partial curve, poor fit].
With `CCN1CCN(Cc2ccc(NC(=O)c3cc(NC(=O)c4cnn(-c5ccccc5)c4N)cc(OC)c3)cc2C(F)(F)F)CC1`, the AC50 is 12.6 µM [falling, partial curve].
As for `O=[N+]([O-])c1ccc(NC(=S)N2CCOCC2)cc1`, the AC50 is 0.58 µM [rising, full curve, poor fit].
Take `CCN(CC)C(=O)Cn1cc(S(=O)(=O)CC(=O)Nc2ccc3c(c2)OCCO3)c2ccccc21`: the AC50 was 35.5 µM [falling, single point].
Turning to `Cc1c(/C=N/NC(=O)c2ccccc2O)c2ccccn2c1C(=O)c1ccc(F)cc1`, the AC50 was 20.6 µM [falling, partial curve].
For the molecule `COc1cccc(NC(=S)N2CCn3c(nc4ccccc43)C2)c1`, the AC50 was 20 µM [falling, partial curve, poor fit].
With `O=C(CCc1ccccc1)Nc1ccccc1F`, the AC50 is 11.6 µM [falling, partial curve].
Consider `CCc1c(C)[nH]n(-c2nc(-c3cccc([N+](=O)[O-])c3)cs2)c1=O`, for which the AC50 is 32.6 µM [falling, single point].
With `O=C1/C(=N\S(=O)(=O)c2cccs2)C([n+]2ccccc2)=C([O-])c2ccccc21` the figure was 1.41 µM [falling, full curve, poor fit]; with `COc1cc(C(=O)Nc2c(-c3ccccn3)c(=O)c3ccccc3n2C)cc(OC)c1OC`, 6.31 µM [rising, full curve, poor fit].
`CCOC(=O)COn1c2c(c3c4no[n+]([O-])c4ccc31)CCCC2`: the AC50 is 25.9 µM [falling, partial curve, poor fit].
With `COc1ccc(C(=O)NCC(=O)N2CCc3ccccc3C2)cc1` the figure was 14.1 µM [rising, partial curve, poor fit].
With `COc1cccc(C(=O)Nc2ccc(C(=O)O)cc2)c1` the figure was 12.6 µM [falling, partial curve, poor fit]; with `N#C/C(=C\c1ccc(C(=O)O)cc1)c1nc2sc3c(c2c(=O)[nH]1)CCCC3`, 11.2 µM [falling, partial curve].
With `COc1ccc(CCNC(=O)CSc2nc3[nH]ncc3c(=O)n2-c2ccc(C)c(Cl)c2)cc1OC`, the AC50 was 35.5 µM [falling, single point].
Then `CC1=C(C(=O)Nc2ccc(C(=O)NC(C)c3ccccc3)cc2)SCCO1` (stereo not drawn), with 5.62 µM [falling, partial curve, poor fit]; and `N#Cc1nc(COc2cccc(Cl)c2)oc1NCc1ccncc1`, with 10 µM [falling, partial curve, poor fit].
Regarding `COc1cc(CC(=O)NCC2COc3ccccc3O2)cc(OC)c1OC` (stereo not drawn), the AC50 is 3.16 µM [rising, single point].
As to `CC(=O)Nc1ccc(S(=O)(=O)NCCS(=O)(=O)N2CCN(c3ccccc3F)CC2)cc1`, the AC50 is 3.55 µM [rising, full curve, poor fit].
With `CC(=O)c1ccc(N=Nc2ccc(C)cc2)cc1` the figure was 1.58 µM [rising, partial curve, poor fit]; with `COc1cc(COCC(O)CN2CCCCC2C)cc(OC)c1OC` (stereo not drawn), 12.6 µM [rising, single point].
As for `Cc1ccc2c(CC(=O)NCc3cccs3)coc2c1`, the AC50 is 29.1 µM [falling, single point].
With `Cc1cccc(N(Cc2cc(=O)[nH]c3ccccc23)C(=O)CCl)c1`, the half-maximal activity concentration (AC50) was 10 µM [falling, partial curve].
On to `CC(NC(=O)c1ccccc1NS(=O)(=O)c1ccc(CCC(=O)O)cc1)c1ccccc1` (stereo not drawn), for which the AC50 was 3.55 µM [rising, partial curve, poor fit].
Take `Cn1c(=O)n(Cc2ccccc2F)c(=O)c2c1nc1n2CCN1Cc1ccco1`: the AC50 was 3.98 µM [falling, single point].
With `CCCCCCCSc1nsc(N)n1` the figure was 23.1 µM [rising, partial curve, poor fit].
For `O=C(NNc1c2ccccc2nc2ccccc12)c1cc2ccccc2cc1O`, the AC50 was 6.51 µM [rising, partial curve, poor fit].
Then `CCc1noc(C)c1C(=O)Nc1cc(S(=O)(=O)N2CCOCC2)ccc1OC(C)C`, with 6.51 µM [rising, single point]; and `COc1ccc2c(c1OC)C(=O)NC(C)=C(C(=O)OC(C)(C)C)C2O` (stereo not drawn), with 0.708 µM [falling, full curve]; and `OCCCNc1cc(-c2ccnc(Nc3cccc(Cl)c3)n2)ccn1`, with 0.282 µM [falling, full curve, poor fit].
As for `Cn1c(=O)n(C)c2cc([N+](=O)[O-])c(N3CCN(S(C)(=O)=O)CC3)cc21`, the AC50 is 5.17 µM [rising, full curve, poor fit].
With `COc1ccc(NC(=O)/C(C#N)=C\c2ccc(OCc3ccc(C(=O)O)cc3)c(OC)c2)cc1` the figure was 2.51 µM [falling, full curve].
With `O=C(COc1ccccc1Cl)NNC(=O)Cn1[nH]c(=O)c2ccccc2c1=O`, the AC50 is 20.6 µM [rising, single point].
With `CC(=O)C1=C(O)C(=O)N(c2ccc(Br)cn2)C1c1ccc(F)cc1` (stereo not drawn) the figure was 11.2 µM [falling, partial curve]; with `O=C(OCc1cc(=O)n2c(n1)sc1ccccc12)c1ccc(O)cc1O`, 1.26 µM [rising, full curve, poor fit]; with `Cc1ccc(F)c(NC=C2C(=O)OC(C)(C)OC2=O)c1`, 35.5 µM [rising, partial curve, poor fit].
With `CSCCC(NC(=O)c1ccc(C(C)(C)C)cc1)C(=O)O` (stereo not drawn) the figure was 6.31 µM [rising, single point]; with `Cc1cc(C(=O)N/N=C/c2cc(Cl)cc([N+](=O)[O-])c2O)n[nH]1`, 5.62 µM [falling, single point]; with `O=C(COC(=O)c1ccc(Br)o1)Nc1ccc2c(c1)OCCO2`, 9.2 µM [rising, partial curve, poor fit].
Consider `O=c1[nH]c(C2CCN(S(=O)(=O)c3ccccc3C(F)(F)F)CC2)nc2c1nnn2Cc1cccc(F)c1`, for which the AC50 is 22.4 µM [falling, single point].
With `COc1ccc(CCNC2CC(=O)N(CCc3ccc(OC)c(OC)c3)C2=O)cc1OC` (stereo not drawn) the figure was 7.31 µM [falling, partial curve, poor fit]; with `O=C(NCCc1ccccc1)Nc1ccc2c(c1)OCO2`, 15.8 µM [falling, single point].
As for `N#C/C(=C\c1ccc(N2CCOCC2)o1)c1nc2ccccc2[nH]1`, the concentration at half-maximal activity (AC50) was 35.5 µM [falling, partial curve, poor fit].
As to `CC(=O)c1ccc(OCCCC(=O)NC2CCCc3ccccc32)cc1` (stereo not drawn), the AC50 was 13 µM [rising, partial curve, poor fit].
For the molecule `Clc1ccc(-c2nnc(C3CC3)o2)cc1`, the AC50 was 20 µM [rising, single point].
For `O=C(CNC(=O)c1ccccc1)NCCc1ccc(O)c(O)c1`, the AC50 is 11.2 µM [falling, partial curve, poor fit].
With `CSCC[C@H](NC(=O)[C@@H]1Cc2ccccc2CN1)C(=O)Nc1ccc2c(c1)OCCO2` the figure was 11.2 µM [falling, partial curve].
As to `COc1cccc(OC)c1CN1CCCC(C(=O)c2ccccc2SC)C1` (stereo not drawn), the AC50 was 35.5 µM [falling, single point].
`CC1(C)CC(NC(=O)c2ccccc2F)CC(C)(C)N1`: the AC50 is 35.5 µM [falling, partial curve, poor fit].
In the case of `C=CCn1c(=O)c(C(=O)Nc2ccccc2C(=O)OCC)c(O)c2ccccc21`, the AC50 is 1.46 µM [rising, full curve, poor fit].
Consider `CCCCCCC(C)OC(=O)Nc1cccc2ccccc12` (stereo not drawn), for which the AC50 is 10 µM [falling, single point].
Then `COCCn1c(SC(C)C(=O)Nc2ccc3c(c2)OCCO3)nc2ccccc2c1=O` (stereo not drawn), with 3.16 µM [falling, full curve, poor fit].
In the case of `CCN(CC)CC(=O)Nc1ccc2c(c1)N(C(=O)CN(CC)CC)c1ccccc1CC2`, the AC50 is 11.6 µM [falling, partial curve, poor fit].
With `Cc1ccc(-c2cn3c(=O)cc(C)[nH]c3n2)cc1` the figure was 2.51 µM [falling, full curve]; with `O=C(C1=C[C@@H]2[C@H]3C(=O)N(c4ccccc4)C(=O)[C@H]3[C@@H](C(=O)c3ccc(Cl)cc3)N2C=C1)c1ccccc1`, 8.2 µM [falling, partial curve].
For `Cc1ccc(NC(=O)c2cc3c(s2)CCCC3)cc1S(=O)(=O)Nc1ccccc1Cl`, the AC50 is 23.1 µM [falling, partial curve, poor fit].
With `Cc1cccc(NC(=S)NC(=O)/C=C/c2ccco2)n1` the figure was 20.6 µM [falling, partial curve, poor fit].

Broadly, the AC50 is the concentration giving half of the maximal activity seen.
